The target of this test is eukaryotic initiation factor 4E (eIF4E) (mouse (endogenous in brain)) (UniProt P63073). In words: pull-down; m7GTP beads (agarose beads as control) incubated with precleared S20 lysate of P21 mouse brain in brain extraction buffer with 100 µM GTP as competitor, 1 h at 4 °C; three washes; eluate blotted for eIF4E, PABPC1 and Pum2.

By UniProt entry, the sequences of proteins in these tests, tags left out.
UniProt P63073: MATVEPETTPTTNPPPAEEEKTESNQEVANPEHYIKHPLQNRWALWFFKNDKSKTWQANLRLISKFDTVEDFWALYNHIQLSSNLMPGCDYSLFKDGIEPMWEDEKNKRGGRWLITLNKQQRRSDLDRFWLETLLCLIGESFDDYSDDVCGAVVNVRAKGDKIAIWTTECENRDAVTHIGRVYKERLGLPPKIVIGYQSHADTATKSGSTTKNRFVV
UniProt Q80U58: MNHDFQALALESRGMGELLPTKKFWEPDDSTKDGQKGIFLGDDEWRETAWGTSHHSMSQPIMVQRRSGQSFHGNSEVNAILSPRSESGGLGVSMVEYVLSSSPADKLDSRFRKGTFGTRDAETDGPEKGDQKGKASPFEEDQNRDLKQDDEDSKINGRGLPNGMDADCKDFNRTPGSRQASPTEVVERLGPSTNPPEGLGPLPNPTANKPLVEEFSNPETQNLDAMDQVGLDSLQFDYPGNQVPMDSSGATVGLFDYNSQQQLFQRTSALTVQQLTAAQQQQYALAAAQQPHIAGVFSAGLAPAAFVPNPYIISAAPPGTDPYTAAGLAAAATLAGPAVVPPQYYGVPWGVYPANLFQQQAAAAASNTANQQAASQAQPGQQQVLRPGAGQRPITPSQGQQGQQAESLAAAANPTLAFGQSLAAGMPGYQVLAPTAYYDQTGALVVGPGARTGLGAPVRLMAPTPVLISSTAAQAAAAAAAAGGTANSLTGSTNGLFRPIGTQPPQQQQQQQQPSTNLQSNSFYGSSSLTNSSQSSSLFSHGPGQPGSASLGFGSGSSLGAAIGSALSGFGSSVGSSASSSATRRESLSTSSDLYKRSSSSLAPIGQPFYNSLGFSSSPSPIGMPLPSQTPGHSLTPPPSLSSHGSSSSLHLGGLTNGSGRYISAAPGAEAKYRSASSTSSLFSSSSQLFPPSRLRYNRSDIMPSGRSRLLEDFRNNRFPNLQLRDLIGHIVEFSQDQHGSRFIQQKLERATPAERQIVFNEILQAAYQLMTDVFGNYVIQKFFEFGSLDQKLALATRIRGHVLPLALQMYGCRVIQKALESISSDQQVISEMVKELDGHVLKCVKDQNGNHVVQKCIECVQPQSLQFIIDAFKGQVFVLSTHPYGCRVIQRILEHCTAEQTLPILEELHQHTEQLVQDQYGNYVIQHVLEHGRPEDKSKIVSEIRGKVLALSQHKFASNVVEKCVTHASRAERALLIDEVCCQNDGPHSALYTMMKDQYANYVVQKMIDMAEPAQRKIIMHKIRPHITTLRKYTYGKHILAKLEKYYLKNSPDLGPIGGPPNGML

No constants are given. Whether binding was seen depends on the method and setting. In cells and extracts the contact can be indirect.

Regarding “Pumilio2 (Pum2) (from UniProt Q80U58 1-1066)”, the binding entry was “no binding”.

For the origin of these results see publication PMC8396670.
